Measured values from the supplement of paper PMC12889115.
This is one part of the list. These are raw signals, not scaled to a control.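 First-pass screen: polymyxin B was added at a level that permeabilizes the Salmonella outer membrane while sparing the inner membrane. DMSO wells, with and without polymyxin B, defined maximum growth. Because plates differed from one another, each plate's data were ranked separately and the compounds with the lowest OD600 were carried forward as hits.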

Tested on: Salmonella enterica serovar Typhimurium SL1344
Experiment: bacterial growth OD600 after 18 h with compound and polymyxin B; higher = more bacterial growth (less inhibition)
Settings: 50 µM, Mueller-Hinton broth

Row | SMILES | bacterial growth OD600 (polymyxin B 0.75 µg/mL) | bacterial growth OD600 (polymyxin B 1 µg/mL)
1 | COc1cc(CN2CCSCC2)ccc1OCC(O)CN(C)C(C)C (stereo not given) | 0.823 | –
2 | Cc1cc(=O)c(C(=O)N(CC2CCN(Cc3ccccc3F)CC2)CC2CCCO2)c[nH]1 (stereo not given) | – | 1.17
3 | CCOC(=O)C1(Cc2ccc(F)cc2)CCCN(C(=O)c2cccc(C)c2)C1 (stereo not given) | – | 0.015
4 | CCC1CN(CCC(=O)N(C)Cc2ccc(OC)c3ncccc23)Cc2cc(OC)ccc2O1 (stereo not given) | 0.782 | –
5 | Fc1ccc(CN2CCOc3ccc(CN4CCC(Oc5cccnc5)CC4)cc3C2)cc1 | 0.788 | –
6 | O=C(NCC1CCCN(Cc2ccccn2)C1)C1(c2ccc(Cl)cc2)CC1 (stereo not given) | – | 0.676
7 | CCC1CN(Cc2cn(C)nc2C)Cc2cc(OC)ccc2O1 (stereo not given) | 0.818 | –
8 | Cc1cc(-c2nn(-c3ccccc3F)cc2CN(C)Cc2ccon2)c(C)s1 | – | 0.008
9 | Cc1ncc2c(c1CNC(=O)/C=C/c1ccccc1)CCN(C(=O)CCc1c[nH]c3ccccc13)C2 | 0.945 | –
10 | Cc1cnc(-n2ncc(C(=O)NC3CCCN(Cc4ccccc4)C3)c2C2CC2)nc1-c1cccs1 (stereo not given) | 0.086 | –
11 | O=C(Cc1ccc2c(c1)OCO2)NC1CCCc2c1cnn2-c1ccc(F)cc1F (stereo not given) | – | 0.78
12 | COCc1noc(-c2ccc(N(C)CCC3CCOCC3)nc2)n1 | 0.837 | –
13 | CC(C)N(Cc1nccn1C)c1ccc(-c2nc(C3CC3)no2)cn1 | 0.813 | –
14 | O=C(Nc1ccnn1C1CCN(C(=O)Cc2c(F)cc(F)cc2F)CC1)C1CCOC1 (stereo not given) | 0.763 | –
15 | CCC(=O)N[C@@H]1c2ccccc2C2(CCN(C(=O)c3cnsn3)CC2)[C@H]1OCc1cccnc1 | 0.808 | –
16 | COCc1ccc(C(=O)Nc2ccc(-c3nc(CNC(=O)CSc4ccccc4)c(C)o3)cc2)o1 | 0.1 | –
17 | O=C(NC1(c2ccccc2)CC1)C1CCCN(C2CCN(C(=O)C3CC3)CC2)C1 (stereo not given) | – | 0.842
18 | COc1ccccc1CCC(=O)N1CCc2onc(-c3ccc(Cl)cc3)c2C1 | 0 | –
19 | Cc1ncc2c(c1CNC(=O)c1ccccc1F)CCN(C(=O)COc1ccccc1Cl)C2 | 0.729 | –
20 | CCOC(=O)C1(Cc2ccccc2Cl)CCN(Cc2nc3ccccc3[nH]2)CC1 | – | 0.955

Taken from above.
Cc1cc(-c2nn(-c3ccccc3F)cc2CN(C)Cc2ccon2)c(C)s1 – bacterial growth OD600 (polymyxin B 1 µg/mL): 0.008
O=C(NCC1CCCN(Cc2ccccn2)C1)C1(c2ccc(Cl)cc2)CC1 (stereo not given) – bacterial growth OD600 (polymyxin B 1 µg/mL): 0.676
